The list is a part of this screen's results and no random one: it gathers some chemical classes. Other doses and runs of a compound may be missing. T/C gives the treated animals as a percentage of the vehicle group. Some entries give survivors of the animals treated and no T/C: the source holds a T/C of zero for them, seemingly a mark for toxic or unscored doses. Some survivor counts are full or nearly so, which does not show that the dose was tolerated: survival well below the control is almost never listed, so the zero probably covers shortened survival too. Counts of survivors are from the toxicity check (mostly the fifth day) where no day follows; animals may have died later. Schedules are NCI's codes, taken here to give the interval after Q, in days (D) or hours (H), and the number of doses after X. Some entries were tested several times; their values stand side by side, smallest first. Where survival is the endpoint, the PubChem record calls one and a half times the control and up active, and a quarter to a half above the control has no call in these data; cut-offs in other NCI protocols can differ. Some T/C values are marked as having no survivor count here; that says nothing about deaths at the dose. Some T/C values carry the count of animals alive at the toxicity check (mostly the fifth day); where neither a count nor a note follows, no animal had died by that day.

The subject of this assay is P388 leukemia ip, CD2F1 mice, survival T/C. Kind of assay: NCI In Vivo Anticancer Drug Screen. Data for tumor model P388 Leukemia (intraperitoneal) in CD2F1 (CDF1) mice. The conditions noted are these: T/C endpoint: median survival time, higher T/C = longer survival.
Where [1] appears, read: dose: 100.0 mg/kg/injection, schedule: Q04DX003 (ip), vehicle: Klucel (hydroxypropylcellulose) (HPC).
The mark [2] stands for this setting: dose: 200.0 mg/kg/injection, schedule: Q04DX003 (ip), vehicle: Klucel (hydroxypropylcellulose) (HPC).
The mark [3] stands for this setting: dose: 400.0 mg/kg/injection, schedule: Q04DX003 (ip), vehicle: Klucel (hydroxypropylcellulose) (HPC).
Where [4] appears, read: dose: 50.0 mg/kg/injection, schedule: Q01DX009 (ip), vehicle: saline.
The mark [5] stands for this setting: dose: 100.0 mg/kg/injection, schedule: Q01DX009 (ip), vehicle: saline.
The mark [6] stands for this setting: dose: 200.0 mg/kg/injection, schedule: Q01DX009 (ip), vehicle: saline.

In the case of `CN(C)c1ncnc2c1NP(C)(=O)N2` (stereo not given), the T/C is 100 % of control [survivor count not shown] (dose: 50.0 mg/kg/injection, schedule: Q04DX003 (ip), vehicle: Klucel (hydroxypropylcellulose) (HPC)); 105 % of control [survivor count not shown] under setting [1]; 94 % of control [survivor count not shown] under setting [2]; 96 % of control [survivor count not shown] under setting [3].
Consider `CC(=O)OCC#CC[N+]1([O-])CCCCC1.O=[N+]([O-])c1cc([N+](=O)[O-])c(O)c([N+](=O)[O-])c1`, for which the T/C runs as follows: (dose: 12.5 mg/kg/injection, schedule: Q04DX002 (ip), vehicle: Klucel (hydroxypropylcellulose) (HPC)) 101 % of control; (dose: 25.0 mg/kg/injection, schedule: Q04DX002 (ip), vehicle: Klucel (hydroxypropylcellulose) (HPC)) 101 % of control; (dose: 50.0 mg/kg/injection, schedule: Q04DX002 (ip), vehicle: Klucel (hydroxypropylcellulose) (HPC)) 105 % of control. The survivor count is, setting by setting: (dose: 100.0 mg/kg/injection, schedule: Q04DX002 (ip), vehicle: Klucel (hydroxypropylcellulose) (HPC)) 2 of 6; (dose: 200.0 mg/kg/injection, schedule: Q04DX002 (ip), vehicle: Klucel (hydroxypropylcellulose) (HPC)) 0 of 6; (dose: 400.0 mg/kg/injection, schedule: Q04DX002 (ip), vehicle: Klucel (hydroxypropylcellulose) (HPC)) 0 of 6.
`CCOCCOCCSP(C)(=O)OC(C)C` (stereo not given): the T/C was 102 % of control (dose: 0.75 mg/kg/injection, schedule: Q01DX005 (ip), vehicle: saline); 100 % of control (dose: 1.5 mg/kg/injection, schedule: Q01DX005 (ip), vehicle: saline); 105 % of control (dose: 3.0 mg/kg/injection, schedule: Q01DX005 (ip), vehicle: saline).
As to `C=C1C(=O)C2CCN1CC2.O=[N+]([O-])c1cc([N+](=O)[O-])c(O)c([N+](=O)[O-])c1`, the T/C is, setting by setting: (dose: 100.0 mg/kg/injection, schedule: Q01DX001 (ip), vehicle: Klucel (hydroxypropylcellulose) (HPC)) 98 % of control; (dose: 200.0 mg/kg/injection, schedule: Q01DX001 (ip), vehicle: Klucel (hydroxypropylcellulose) (HPC)) 99 % of control [5 of 6 alive]; (dose: 400.0 mg/kg/injection, schedule: Q01DX001 (ip), vehicle: Klucel (hydroxypropylcellulose) (HPC)) 107 % of control.
On to `O=C1NC(=O)C2(CC3CCCC(C2)N3CCCl)N1` (stereo not given), for which the T/C (dose: 1.87 mg/kg/injection, schedule: Q01DX005 (ip), vehicle: saline) was 87 % of control [5 of 6 alive]; the T/C (dose: 3.75 mg/kg/injection, schedule: Q01DX005 (ip), vehicle: saline) was 95 % of control; the T/C (dose: 7.5 mg/kg/injection, schedule: Q01DX005 (ip), vehicle: saline) was 129 and 134 % of control; the T/C (dose: 15.0 mg/kg/injection, schedule: Q01DX005 (ip), vehicle: saline) is 141 and 142 % of control. The survivor count (dose: 30.0 mg/kg/injection, schedule: Q01DX005 (ip), vehicle: saline) is reported as 6 of 6; the survivor count (dose: 60.0 mg/kg/injection, schedule: Q01DX005 (ip), vehicle: saline) was 0 of 6; the survivor count (dose: 120.0 mg/kg/injection, schedule: Q01DX005 (ip), vehicle: saline) is listed as 0 of 6; the survivor count (dose: 240.0 mg/kg/injection, schedule: Q01DX005 (ip), vehicle: saline) is listed as 0 of 6.
In the case of `CN(C)[P+](On1nnc2ccccc21)(N(C)C)N(C)C.F[P-](F)(F)(F)(F)F`, the T/C reads like this: (dose: 1.87 mg/kg/injection, schedule: Q01DX005 (ip), vehicle: Klucel (hydroxypropylcellulose) (HPC)) 107 % of control; (dose: 3.75 mg/kg/injection, schedule: Q01DX005 (ip), vehicle: Klucel (hydroxypropylcellulose) (HPC)) 103 % of control. Moreover, the survivor count is 0 of 6 and 1 of 6 (dose: 7.5 mg/kg/injection, schedule: Q01DX005 (ip), vehicle: Klucel (hydroxypropylcellulose) (HPC)); 0 of 6 (dose: 15.0 mg/kg/injection, schedule: Q01DX005 (ip), vehicle: Klucel (hydroxypropylcellulose) (HPC)); 0 of 6 (dose: 30.0 mg/kg/injection, schedule: Q01DX005 (ip), vehicle: Klucel (hydroxypropylcellulose) (HPC)); 0 of 6 (dose: 60.0 mg/kg/injection, schedule: Q01DX005 (ip), vehicle: Klucel (hydroxypropylcellulose) (HPC)); 0 of 6 (dose: 120.0 mg/kg/injection, schedule: Q01DX005 (ip), vehicle: Klucel (hydroxypropylcellulose) (HPC)); 0 of 6 (dose: 240.0 mg/kg/injection, schedule: Q01DX005 (ip), vehicle: Klucel (hydroxypropylcellulose) (HPC)).
As to `CC(C)OP(C)(=O)OC(C)C.[Cl][Ta]([Cl])([Cl])([Cl])[Cl]`, the T/C runs as follows: under setting [1], 108 % of control [survivor count not shown]; under setting [2], 108 % of control [survivor count not shown]; under setting [3], 97 % of control [survivor count not shown].
For `N#[C][Sn]([CH2]c1ccccc1)([CH2]c1ccccc1)[CH2]c1ccccc1`, the T/C by setting is: (dose: 100.0 mg/kg/injection, schedule: Q04DX003 (ip), vehicle: saline with Tween-80) 102 % of control; (dose: 200.0 mg/kg/injection, schedule: Q04DX003 (ip), vehicle: saline with Tween-80) 100 % of control; (dose: 400.0 mg/kg/injection, schedule: Q04DX003 (ip), vehicle: saline with Tween-80) 87 % of control [5 of 6 alive].
For `CCSC(=O)SCCCl`, the T/C is, setting by setting: under setting [4], 97 % of control; under setting [5], 94 % of control; under setting [6], 88 % of control.
`O=c1c2c3c(sc2nc2n1CC(CBr)S2)CCCC3` (stereo not given): the T/C is, setting by setting: (dose: 50.0 mg/kg/injection, schedule: Q01DX009 (ip), vehicle: Klucel (hydroxypropylcellulose) (HPC)) 93 % of control; (dose: 100.0 mg/kg/injection, schedule: Q01DX009 (ip), vehicle: Klucel (hydroxypropylcellulose) (HPC)) 99 % of control; (dose: 200.0 mg/kg/injection, schedule: Q01DX009 (ip), vehicle: Klucel (hydroxypropylcellulose) (HPC)) 88 % of control.
Consider `ClCCNc1nc2ccc(Cl)cc2c2ccccc12`, for which the T/C runs as follows: (dose: 5.0 mg/kg/injection, schedule: Q01DX009 (ip), vehicle: saline sonified) 95 % of control; (dose: 10.0 mg/kg/injection, schedule: Q01DX009 (ip), vehicle: saline sonified) 95 % of control. For the same molecule, the survivor count (dose: 20.0 mg/kg/injection, schedule: Q01DX009 (ip), vehicle: saline sonified) is 0 of 6 and the survivor count (dose: 40.0 mg/kg/injection, schedule: Q01DX009 (ip), vehicle: saline sonified) is listed as 0 of 6.
In the case of `CCC(Cl)CSC(=O)SC(Cl)C(Cl)Cl` (stereo not given), the T/C is, setting by setting: under setting [4], 93 % of control; under setting [5], 93 % of control; under setting [6], 90 % of control [5 of 6 alive].
As for `C/C(N)=N\P(=O)(OCc1ccccc1)OCc1ccccc1`, the T/C (dose: 50.0 mg/kg/injection, schedule: Q01DX005 (ip), vehicle: Klucel (hydroxypropylcellulose) (HPC)) was 100 % of control; the T/C (dose: 100.0 mg/kg/injection, schedule: Q01DX005 (ip), vehicle: Klucel (hydroxypropylcellulose) (HPC)) is 94 % of control; the T/C (dose: 200.0 mg/kg/injection, schedule: Q01DX005 (ip), vehicle: Klucel (hydroxypropylcellulose) (HPC)) is 97 % of control [5 of 6 alive].
Take `NC(CCc1ccc(N(CCCl)CCCl)cc1)C(=O)O` (stereo not given): the T/C (dose: 0.78 mg/kg/injection, schedule: Q01DX009 (ip), vehicle: Klucel (hydroxypropylcellulose) (HPC)) was 161 % of control; the T/C (dose: 1.56 mg/kg/injection, schedule: Q01DX009 (ip), vehicle: Klucel (hydroxypropylcellulose) (HPC)) is 160 % of control; the T/C (dose: 3.13 mg/kg/injection, schedule: Q01DX009 (ip), vehicle: Klucel (hydroxypropylcellulose) (HPC)) is 211 % of control [5 of 6 alive]; the T/C (dose: 6.25 mg/kg/injection, schedule: Q01DX009 (ip), vehicle: Klucel (hydroxypropylcellulose) (HPC)) is 89 and 204 % of control. Also, the survivor count was 6 of 6 (dose: 12.5 mg/kg/injection, schedule: Q01DX009 (ip), vehicle: Klucel (hydroxypropylcellulose) (HPC)) and 2 of 6 (dose: 25.0 mg/kg/injection, schedule: Q01DX009 (ip), vehicle: Klucel (hydroxypropylcellulose) (HPC)).

Values taken from PubChem BioAssay AID330 (DTP/NCI, 2004).
